In this series the test system is GFP sensor strains. Put plainly: SVM classification of GFP sensor responses (toxin / no toxin). The series is classed as cell-based. An excerpt: Computational models to determine the threshold of detection for specific sensors based on models of experimental GFP responses. We used machine learning techniques to determine the relationships between the GFP output signal and the presence of a toxin. We have created a database containing the collected sensor response data. We have quantified the GFP threshold of detection for each sensor construct. We have constructed Receiver Operating Characteristic (ROC) curves for each sensor to achieve robust sensing. We constructed machine learning models capable of inferring the relationships between the GFP sensor responses and the presence or absence of a toxin at a given concentration. The algorithm learns these relationships from a set of training samples (GFP sensor responses) defined by the set of experimental conditions from which they were generated. The aim of the algorithm is to provide a general method capable of determining the experimental conditions associated with GFP sensor responses through the use of historical data. Specifically, we have built classification models based on Support Vector Machines (SVMs), which is one of the most popular classifiers due to its excellent performance in many contexts and its solid mathematical basis (1). For each toxin and concentration, we solved a binary classification problem in which the positive class represents the presence of the toxin in water and the negative class is associated with clean environments. Patterns were constructed with features containing GFP sensor responses at various timestamps to capture the temporal dynamics of the GFP signal. The optimal meta-parameters of the SVM classifier were determined by applying a 5-crossvalidation during the training phase (2). In order to have a reliable estimate of the performance of the model when deployed in real environments, we measured its performance over a set of samples (test patterns) not seen during the training phase. The SVM's performance was determined by the percentage of test samples correctly labeled as toxin/no toxin (classification accuracy). 80% of samples were used for training the SVM models and the remaining 20% of samples was used to evaluate their effectiveness. We generated 20 random training/test partitions to have an estimate of performance independent of the data partition.
Specifically, we have built classification models based on Support Vector Machines (SVMs), which is one of the most popular classifiers due to its excellent performance in many contexts and its solid mathematical basis. For each toxin and concentration, we solved a binary classification problem in which the positive class represents the presence of the toxin in water and the negative class is associated with clean environments. Patterns were constructed with features containing GFP sensor responses at various timestamps to capture the temporal dynamics of the GFP signal. The optimal meta-parameters of the SVM classifier were determined by applying a 5-crossvalidation during the training phase.
In order to have a reliable estimate of the performance of the model when deployed in real environments, we measured its performance over a set of samples (test patterns) not seen during the training phase. The SVM's performance was determined by the percentage of test samples correctly labeled as toxin/no toxin (classification accuracy). 80% of samples were used for training the SVM models and the remaining 20% of samples was used to evaluate their effectiveness. We generated 20 random training/test partitions based on data collected in single-strain chips (no crosstalk data) to have an estimate of performance.

`[Cd]` [Cadmium] had a Classification accuracy (toxin conc. 0.022 μM) of 65.00%, a Classification accuracy (toxin conc. 0.044 μM) of 54.16% and a Classification accuracy (toxin conc. 0.44 μM) of 90.00%.

For the compound `[Cu]` [Copper], the Classification accuracy is, setting by setting: (toxin conc. 5 μM) 95.00%; (toxin conc. 10 μM) 96.67%; (toxin conc. 20 μM) 95.00%.

As for `[Cr+6]` [Chromium(VI)], the Classification accuracy is listed as 96.67% (toxin conc. 1.25 μM), 97.50% (toxin conc. 2.5 μM) and 94.17% (toxin conc. 5 μM).

`[Pb]` [Lead] came in with a Classification accuracy (toxin conc. 1.8 μM) of 95.83%, a Classification accuracy (toxin conc. 3.6 μM) of 95.00% and a Classification accuracy (toxin conc. 7.2 μM) of 95.00%.

Consider `CCOC(=O)CC(SP(=S)(OC)OC)C(=O)OCC` (stereo not drawn) [Malathion, malathion], for which the Classification accuracy (toxin conc. 145 mg/L) is 89.17%.

In turn, Ammonium displayed a Classification accuracy (toxin conc. 1 ppm) of 71.05% and a Classification accuracy (toxin conc. 5 ppm) of 91.79%.

These data come from US20220057378A1, “MICROBIAL MI[…]” (priority 2015, published 2022).
